These are yes or no findings as the source states them, for the method shown. In cells and extracts the contact can be indirect. These calls come from enrichment with a bait or labelling near it, and not all partners need be listed.
Target: wildtype full-length Yca1-RFP (S. cerevisiae)
Experiment: affinity purification with mass spectrometry; anti-RFP magnetic beads on lysate of ∆yca1 cells expressing Yca1-RFP (FL), overnight at 4 °C, buffer A (20 mM HEPES-NaOH pH 7.4, 2 mM MgCl2, 300 mM NaCl, 0.1% Tween-20); LC-MS/MS; three independent experiments

B1: Ser/Thr kinase Ypk1 (enzyme, UniProt P12688 1-680)
chain: MYSWKSKFKFGKSKEEKEAKHSGFFHSSKKEEQQNNQATAGEHDASITRSSLDRKGTINPSNSSVVPVRVSYDASSSTSTVRDSNGGNSENTNSSQNLDETANIGSTGTPNDATSSSGMMTIKVYNGDDFILPFPITSSEQILNKLLASGVPPPHKEISKEVDALIAQLSRVQIKNQGPADEDLISSESAAKFIPSTIMLPGSSTLNPLLYFTIEFDNTVATIEAEYGTIAKPGFNKISTFDVTRKLPYLKIDVFARIPSILLPSKTWQQEMGLQDEKLQTIFDKINSNQDIHLDSFHLPINLSFDSAASIRLYNHHWITLDNGLGKINISIDYKPSRNKPLSIDDFDLLKVIGKGSFGKVMQVRKKDTQKVYALKAIRKSYIVSKSEVTHTLAERTVLARVDCPFIVPLKFSFQSPEKLYFVLAFINGGELFYHLQKEGRFDLSRARFYTAELLCALDNLHKLDVVYRDLKPENILLDYQGHIALCDFGLCKLNMKDDDKTDTFCGTPEYLAPELLLGLGYTKAVDWWTLGVLLYEMLTGLPPYYDEDVPKMYKKILQEPLVFPDGFDRDAKDLLIGLLSRDPTRRLGYNGADEIRNHPFFSQLSWKRLLMKGYIPPYKPAVSNSMDTSNFDEEFTREKPIDSVVDEYLSESVQKQFGGWTYVGNEQLGSSMVQGRSIR
binding: binds

Source: publication PMC6341073
